Measured values: patent publication EP0552418A1, “N-substituted-3-iodopropiolamide, production and use thereof” (TAKEDA CHEMICAL INDUSTRIES, LTD., priority 1992, dated 1993)
The name of at least one read-out is uncertain.

System: Aspergillus Niger, Penicillium funiculosum, Rhizopus javanicus, Aureobasidium pullulans, Gliocladium virens
Assay: Fungicide activity for wood fungicide, sum over the five fungi and damage value
Assay type: cell-based
Conditions: 0.5% xylene solution; sum of average ratings of five fungi; untreated 15.0
Description: This test was conducted according to Specification No.2 of Japan Wood Preserving Association, enacted in 1979 and titled "Test methods of fungicide activity for wood fungicide".
• ① Aspergillus niger van Tieghem IFO 6341 = ATCC 6275 • ② Penicillium funiculosum Thom (formerly : Penicillium luteum Zukal) IFO 6345 = ATCC 9644 . • ③ Rhizopus javanicus Takeda (formerly : Rhizopus nigricans Ehrenberg S.N. 32) IFO 6354 • ④ Aureobasidium pullulans (de Bary) Arnaud IFO 6353 = IAM (H. Iizuka, F-24) • ⑤ Gliocladium virens Miller, Gidden & Fosteb IFO 6355 = ATCC 9645 (formerly : Trichoderma viride, T.I.)
The average rating (A) was determined for each type of fungi with the following equation: Average rating (A) = (a₁ + a₂ + a₃ + a₄ + a₅ + a₆ ) / 6 [formula] wherein a₁, a₂ ...a₆ : rating for each test specimen.
The damage value was determined with the following equation after determining the sum of average rating by adding each rating of test specimens for each concentration of fungicide solution: S = A₁ + A₂ + A₃ + A₄ + A₅ [formula] wherein A₁, A₂.., A₅: average rating for each type of fungi D = S₁ / S₀ × 100 [formula] wherein S₀ : S for untreated test specimens S₁ : S for specimens treated with certain concentration of fungicide solution
Both lower rating value and lower damage value correspond to higher wood fungicide activity. […]

CCCCNC(=O)OCC#CI [R, I-C≡CCH₂O-CO-NH(CH₂)₃CH₃, reference compound]
Sum (S = A₁ + A₂ + A₃ + A₄ + A₅): 2.0
